Source: PMC10458530 (Pharmaceuticals, 2023)

Test: general procedure: Fmoc solid-phase peptide synthesis; HBTU; PyBOP
[1] = whole synthesis, scale 0.1 mmol

Which results are given for “{DOTA}-K(Propanoyl(3-SS-DM1))DF[Sta][Ahx]-EuK (SMILES COc1cc2cc(c1Cl)N(C)C(=O)C[C@H](OC(=O)[C@H](C)N(C)C(=O)CCSSCCC(=O)NCCCC[C@H](NC(=O)CN1CCN(CC(=O)O)CCN(CC(=O)O)CCN(CC(=O)O)CC1)C(=O)N[C@@H](CC(=O)O)C(=O)N[C@@H](Cc1ccccc1)C(=O)N[C@@H](CC(C)C)[C@@H](O)CC(=O)NCCCCCC(=O)NCCCC[C@H](NC(=O)N[C@@H](CCC(=O)O)C(=O)O)C(=O)O)[C@]1(C)O[C@H]1[C@H](C)[C@@H]1C[C@@](O)(NC(=O)O1)[C@H](OC)/C=C/C=C(\C)C2)”?
final LC-MS purity (conjugation step): purity > 99%; conjugation yield (conjugation step, on 2): 66%; conjugation yield (conjugation step, over the last two steps): 48%; isolated yield (whole synthesis, global chemical yield, scale of the general procedure 0.1 mmol): 11%

With “EuK(Ahx-Sta-Phe-Asp-Lys(C(O)-(CH2)2-S-S-Py)-DOTA)” as the substance, how does the “final LC-MS purity” value (late stage modification step) read?
The value was “purity > 99%”.

And the step yield (late stage modification step, on 1)?
Its step yield is 73%.

For “EuK(Ahx-Sta-Phe-Asp-Lys(C(O)-(CH2)2-SH)-DOTA)”, which “final LC-MS purity” value (whole synthesis, scale of the general procedure 0.1 mmol) is on record?
The value was “purity > 99%”.

And the isolated mass [1]?
Its isolated mass is 32.1 mg.

And the isolated yield [1]?
Its isolated yield is 22%.

The same purity stands for every peptide and may come from a single statement. Non-standard residues stand in square brackets, D forms with d. *: point of attachment. Propanoyl(3-SS-DM1) = COc1cc2cc(c1Cl)N(C)C(=O)C[C@H](OC(=O)[C@H](C)N(C)C(=O)CCSSCCC(=O)*)[C@]1(C)O[C@H]1[C@H](C)[C@@H]1C[C@@](O)(NC(=O)O1)[C@H](OC)/C=C/C=C(\C)C2; DOTA = O=C(O)CN1CCN(CC(=O)O)CCN(CC(=O)*)CCN(CC(=O)O)CC1; EuK = O=C(O)CC[C@H](NC(=O)N[C@@H](CCCCN*)C(=O)O)C(=O)O; Sta = CC(C)C[C@H](N)[C@@H](O)CC(=O)O; Ahx = NCCCCCC(=O)O
